Data from patent publication EP0712040B1, “Method for processing silver halide photographic light-sensitive material” (KONICA CORPORATION, priority 1994, dated 1996).

Experiment: Yellow stain at unexposed area of processed film after dark storage (Preparation Example 2)
Settings: additive in stabilizer 2 g/l (Formalin 5 ml/l), stored in dark 10 days at 75°C, RH 10%, difference to before storage

Compound | Yellow stain density
Dimethylolguanidine [F-4-1] | 0.03
OCNc1nc(NCO)nc(NCO)n1 [F-3-1, Trimethylolmelamine] | 0.03
